Taken from: PubChem BioAssay AID493246 (Drosophila RNAi Screening Center, 2011)
Screen: 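Genome-wide search for dsRNAs that reduce cell number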 (primary screen). Cells: Drosophila Kc and S2R+ cells. Reagent: long dsRNA against Drosophila genes. Measured: 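Raw, unnormalised count of remaining cells in each well; per-plate z-scores of cell number underlie the calls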. Direction: Kc cell number and S2R+ cell number: higher = more cells remaining. Rule for the call: 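Active when the per-plate z-score of cell number is 3 or more in the direction of fewer cells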.
The screen tested about 21,000 reagents; shown is an unselected part of those that have a named target and a result. In the full data, 429 (2%) are marked active. 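Values are raw and not normalised between plates; calls rest on per-plate z-scores that were not deposited.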 A plus sign joins genes that one reagent is predicted to hit. Reagent sequences are not shown. The record does not give: the amount of reagent, the time to read-out.

target,dsRNA,"Kc cell number, rep 1","Kc cell number, rep 2","S2R+ cell number, rep 1","S2R+ cell number, rep 2",call
Or1a,DRSC18689,1.59e6,1.74e6,1.10e6,1.46e6,inactive
Exn,DRSC09673,1.58e6,1.81e6,8.38e5,1.02e6,inactive
Exn,DRSC10077,1.45e6,1.49e6,1.29e6,1.45e6,inactive
CG14082,DRSC10086,1.49e6,1.59e6,1.27e6,1.37e6,inactive
ppk6,DRSC06062,1.66e6,1.71e6,1.21e6,1.35e6,inactive
Ste:CG33238 + Ste:CG33241 + Ste:CG33236 + 11 more,DRSC19004,1.43e6,1.57e6,1.13e6,1.19e6,inactive
Ste:CG33238 + Ste:CG33241 + Ste:CG33236 + 11 more,DRSC21260,1.44e6,1.50e6,1.07e6,1.21e6,inactive
parvin,DRSC19468,1.55e6,1.59e6,1.12e6,1.25e6,inactive
Shab,DRSC08013,1.47e6,1.54e6,1.11e6,1.19e6,inactive
Shab,DRSC08643,1.55e6,1.46e6,9.48e5,1.17e6,inactive
Shab,DRSC08699,1.27e6,1.44e6,8.69e5,9.34e5,inactive
Lst,DRSC07146,1.88e6,1.95e6,1.25e6,1.34e6,inactive
l(3)76BDm,DRSC11047,1.48e6,1.47e6,1.31e6,1.28e6,inactive
CG30109 + CG30108,DRSC05674,5.47e5,,7.98e5,,inactive
TBC1d7,DRSC15985,1.36e6,1.39e6,9.76e5,1.07e6,inactive
CG14569,DRSC11730,1.45e6,1.57e6,1.39e6,1.50e6,inactive
CG31097,DRSC14666,1.44e6,1.62e6,1.08e6,1.21e6,inactive
Ir7d,DRSC18010,1.62e6,1.69e6,1.09e6,1.20e6,inactive
RpL24,DRSC03185,1.06e6,1.17e6,8.14e5,8.86e5,active
CG5768,DRSC15870,1.50e6,1.47e6,1.21e6,1.16e6,inactive
Msp300,DRSC00854,1.49e6,1.54e6,1.11e6,1.24e6,inactive
Msp300,DRSC00856,1.62e6,1.72e6,1.16e6,1.28e6,inactive
Msp300,DRSC00857,1.57e6,1.63e6,1.11e6,1.27e6,inactive
Msp300,DRSC00858,1.55e6,1.59e6,1.12e6,1.28e6,inactive
Msp300,DRSC02360,1.73e6,1.50e6,1.16e6,1.33e6,inactive
Msp300,DRSC03369,1.17e6,1.22e6,6.01e5,6.75e5,inactive
Msp300,DRSC03370,1.65e6,1.54e6,1.16e6,1.39e6,inactive
